Laboratory results taken from patent US10723742B2 (priority 2015, dated 2020).

How the values were obtained:
[1] = tested on: NCI-H1417 cells (human small-cell lung cancer cell lines); experiment: cells; details: NCI-H1417, read-out: Cell-Growth Inhibition Test: NCI-H1417 Cells IC50 (nM)
[2] = tested on: HEL cells (human acute myelocytic leukemia cell lines); experiment: cells; details: read-out: Cell-Growth Inhibition Test: HEL Cells IC50 (nM)

| SMILES | IC50 [1] | IC50 [2] |
| --- | --- | --- |
| Cc1ccc(-c2ccc(C(=O)N3CCC(c4cccnc4)C3)cc2-c2ccc(C#N)cc2)cc1 (centres unmarked) [Comparative Example 6, 4″-methyl-5′-(3-(pyridin-3-yl)pyrrolidine-1-carbonyl)-[1,1′:2′,1″-terphenyl]-4-carbonitrile] | > 3000 nM | > 3000 nM |
| N#Cc1ccc(-n2nc(C(=O)N3CCCC4(CNC4)C3)cc2-c2ccc(F)cc2)cc1 [Comparative Example 3, 4-(5-(4-fluorophenyl)-3-(2,6-diazaspiro[3.5]nonane-6-carbonyl)-1H-pyrazol-1-yl)benzonitrile] | > 3000 nM | > 3000 nM |
| Cc1ccc(-c2ccc(C(=O)N3CC[C@H](N)C3)cc2-c2ccc(C(F)(F)F)cc2)cc1 [Comparative Example 5, (S)-(3-aminopyrrolidin-1-yl)(4-methyl-4″-(trifluoromethyl)-[1,1′:2′,1″-terphenyl]-4′-yl)methanone] | > 3000 nM | > 3000 nM |
| Cc1ccc(-c2cc(C(=O)N3CCC(N)CC3)nn2-c2ccc(C#N)cc2)cc1 [Comp. Ex. 7, 4-(3-(4-aminopiperidine-1-carbonyl)-5-(p-tolyl)-1H-pyrazol-1-yl)benzonitrile] | 1960 nM | 1040 nM |
